Measured values published in US20200188477A1, “A MEDICAMENT FOR THE TREATMENT OF DISEASES BY BIOFILM FORMING MICROORGANISMS” (priority 2017, published 2020).
At least one structure is not confirmed: it was looked up by name or label, or the drawing left a doubt.

System: M. smegmatis over-expressing M. tuberculosis PpiB
Test: Viability by alamar blue staining
Format: cell-based, Mycobacterium smegmatis
Conditions: up to 1 mg/ml; PpiB Tet+ or VC Tet+

Q: How did the effect on viability turn out when `C[C@H]1O[C@H](O[C@H]2[C@H](O)[C@@H](O)[C@@H](O[C@H]3[C@H](O)[C@@H](O)C(O)O[C@@H]3CO)O[C@@H]2CO)[C@H](O)[C@@H](O)[C@@H]1N[C@H]1C=C(CO)[C@@H](O)[C@H](O)[C@H]1O` (stereo partly shown) [acarbose] was run?
A: did not have any effect
